Reference: paper PMC11335259
No constants are given. Whether binding was seen depends on the method and setting. In cells and extracts the contact can be indirect. Some results given as binding are weak or reduced against the parent protein; the word gives no strength. For part of these data: Sequences can lack the tags named with a protein.

Chains of the proteins cited; added tags and fusions are not shown. Residues count along the entry.
UniProt P22607, residues 23-806: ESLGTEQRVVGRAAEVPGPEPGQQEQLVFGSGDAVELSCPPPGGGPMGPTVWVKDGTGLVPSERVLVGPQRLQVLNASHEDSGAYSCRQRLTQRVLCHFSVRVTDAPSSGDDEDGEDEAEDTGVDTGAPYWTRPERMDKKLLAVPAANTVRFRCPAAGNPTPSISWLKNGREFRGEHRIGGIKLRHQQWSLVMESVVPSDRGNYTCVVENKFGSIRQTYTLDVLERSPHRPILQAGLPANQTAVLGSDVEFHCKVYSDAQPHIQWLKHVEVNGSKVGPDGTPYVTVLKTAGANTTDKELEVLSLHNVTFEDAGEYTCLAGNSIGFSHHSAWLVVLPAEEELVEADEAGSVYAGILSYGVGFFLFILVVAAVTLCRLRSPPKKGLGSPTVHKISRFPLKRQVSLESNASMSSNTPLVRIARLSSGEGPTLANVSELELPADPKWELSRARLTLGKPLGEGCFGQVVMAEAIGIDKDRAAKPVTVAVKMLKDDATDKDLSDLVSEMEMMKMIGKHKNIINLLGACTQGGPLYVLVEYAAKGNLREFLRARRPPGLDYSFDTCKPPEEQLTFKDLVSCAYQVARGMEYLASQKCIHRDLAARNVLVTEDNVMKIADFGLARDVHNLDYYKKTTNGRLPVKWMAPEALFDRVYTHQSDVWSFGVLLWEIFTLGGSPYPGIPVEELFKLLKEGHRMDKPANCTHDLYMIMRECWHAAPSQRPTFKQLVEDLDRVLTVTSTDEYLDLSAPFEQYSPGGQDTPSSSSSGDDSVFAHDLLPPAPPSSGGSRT
UniProt Q8K1S3, residues 27-945: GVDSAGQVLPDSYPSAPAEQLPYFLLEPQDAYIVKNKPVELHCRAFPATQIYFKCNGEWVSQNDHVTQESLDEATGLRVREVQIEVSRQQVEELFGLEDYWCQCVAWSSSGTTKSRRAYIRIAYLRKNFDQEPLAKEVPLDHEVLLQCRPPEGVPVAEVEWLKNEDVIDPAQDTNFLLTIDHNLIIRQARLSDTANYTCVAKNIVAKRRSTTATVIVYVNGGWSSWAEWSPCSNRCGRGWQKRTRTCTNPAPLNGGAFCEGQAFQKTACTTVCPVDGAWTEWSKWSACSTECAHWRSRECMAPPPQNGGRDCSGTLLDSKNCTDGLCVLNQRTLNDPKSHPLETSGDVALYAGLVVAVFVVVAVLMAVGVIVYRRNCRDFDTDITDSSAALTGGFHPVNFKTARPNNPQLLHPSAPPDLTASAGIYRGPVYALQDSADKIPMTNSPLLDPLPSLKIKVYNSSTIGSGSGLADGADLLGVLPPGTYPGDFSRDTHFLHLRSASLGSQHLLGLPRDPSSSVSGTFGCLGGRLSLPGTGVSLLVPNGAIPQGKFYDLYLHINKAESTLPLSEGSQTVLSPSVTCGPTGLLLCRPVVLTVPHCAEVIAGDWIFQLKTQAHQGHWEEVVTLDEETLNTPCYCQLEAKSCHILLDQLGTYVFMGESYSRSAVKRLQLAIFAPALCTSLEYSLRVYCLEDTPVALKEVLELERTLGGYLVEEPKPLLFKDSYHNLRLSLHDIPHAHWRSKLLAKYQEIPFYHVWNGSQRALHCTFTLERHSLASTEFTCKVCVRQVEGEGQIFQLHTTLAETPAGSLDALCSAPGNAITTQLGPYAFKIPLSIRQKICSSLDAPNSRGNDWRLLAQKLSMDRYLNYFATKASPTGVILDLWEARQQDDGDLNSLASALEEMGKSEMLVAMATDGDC

Assays:
Assay in all cases: co-IP; HeLa cells transfected with the indicated plasmids, lysed after 24 h in CHAPSO buffer (1% CHAPSO, 150 mM NaCl, 5 mM EDTA, 50 mM Tris pH 7.6); lysate with anti-IER3IP1, anti-EGFP, anti-V5 or anti-FLAG overnight in the cold, Dynabeads Protein G, 5 washes, immunoblot
EGFP-ERGIC53 = target: T1, EGFP-ERGIC53 (UniProt P49257)
T1 sequence: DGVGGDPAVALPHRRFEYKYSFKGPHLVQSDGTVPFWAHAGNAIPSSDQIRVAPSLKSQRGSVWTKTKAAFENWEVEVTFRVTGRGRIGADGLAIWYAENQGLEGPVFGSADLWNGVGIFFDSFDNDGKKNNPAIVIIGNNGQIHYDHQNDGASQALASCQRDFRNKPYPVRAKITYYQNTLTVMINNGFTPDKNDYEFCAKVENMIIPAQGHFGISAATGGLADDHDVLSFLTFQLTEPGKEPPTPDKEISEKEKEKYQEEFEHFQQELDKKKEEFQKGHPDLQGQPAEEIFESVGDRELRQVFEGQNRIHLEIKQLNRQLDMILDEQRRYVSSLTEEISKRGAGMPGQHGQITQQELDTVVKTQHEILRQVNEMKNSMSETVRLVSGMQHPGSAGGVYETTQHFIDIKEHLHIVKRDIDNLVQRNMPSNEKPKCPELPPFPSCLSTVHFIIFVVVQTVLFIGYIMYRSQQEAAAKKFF

FGFR3-V5 = FGFR3-V5 (UniProt P22607)
Unc5B-FLAG = Unc5B-FLAG (UniProt Q8K1S3)

Measured: binding

B1: Immediate Early Response-3 Interacting Protein 1 (IER3IP1) (protein, UniProt Q9Y5U9 1-82)
chain: MAFTLYSLLQAALLCVNAIAVLHEERFLKNIGWGTDQGIGGFGEEPGIKSQLMNLIRSVRTVMRVPLIIVNSIAIVLLLLFG
binds: all assays above
